US11130780B2 (Washington University, priority 2015, dated 2021)
Strings that start with PEPTIDE1 are HELM notation: dots part the residues, brackets hold end groups and non-standard residues.

Experiment: general procedure: hybrid (solid and solution phase) peptide synthesis; Fmoc-amino acid-preloaded 2-Cl-trityl resin; HBTU/iPr2NEt (tripeptide on resin); HATU/DIPEA (solution coupling to Arg ketothi)
Details: coupling step

Substance | step yield
PEPTIDE1{W.R.L.R.[kbt]}$$$$V2.0 | 39%
PEPTIDE1{[ac].F.L.F.R.[kbt]}$$$$V2.0 | 47%
PEPTIDE1{[ac].K.Q.L.R.[kbt-6-CO-Val-NH2]}$$$$V2.0 | 11%
PEPTIDE1{[ac].K.R.L.R.[kbt-6-CO-Val-NH2]}$$$$V2.0 | 28%
PEPTIDE1{[ac].K.R.L.R.[kbt]}$$$$V2.0 | 38%
PEPTIDE1{[ac].S.K.L.R.[kbt-6-CO-Phe-NH2]}$$$$V2.0 | 25%
PEPTIDE1{[ac].S.K.L.R.[kbt-6-CO-Trp-NH2]}$$$$V2.0 | 24%
PEPTIDE1{[ac].S.K.L.R.[kbt]}$$$$V2.0 | 23%
PEPTIDE1{[ac].W.L.F.R.[kbt]}$$$$V2.0 | 19%

Same assay, conditions: late stage modification step

Substance | step yield
PEPTIDE1{[ac].S.K.L.R.[kbt-6-CONH-4-pyridyl]}$$$$V2.0 | 18%
PEPTIDE1{[ac].S.K.L.R.[kbt-6-CONHBn]}$$$$V2.0 | 33%
PEPTIDE1{[ac].S.K.L.R.[kbt-6-COOH]}$$$$V2.0 | 29%
